Assay results from the supplement of paper PMC12819154, “High-throughput peptide-centric local stability assay extends protein–ligand identification to membrane proteins, tissues and bacteria” (Nature Structural & Molecular Biology, 2025).
Some of the results follow. Most values lie at the level of the controls, where differences are scatter.

Amino acid sequences for entries named in this document (tags omitted). A change or cut given only in a name is not applied to a line headed by its entry.
UniProt Q9D518: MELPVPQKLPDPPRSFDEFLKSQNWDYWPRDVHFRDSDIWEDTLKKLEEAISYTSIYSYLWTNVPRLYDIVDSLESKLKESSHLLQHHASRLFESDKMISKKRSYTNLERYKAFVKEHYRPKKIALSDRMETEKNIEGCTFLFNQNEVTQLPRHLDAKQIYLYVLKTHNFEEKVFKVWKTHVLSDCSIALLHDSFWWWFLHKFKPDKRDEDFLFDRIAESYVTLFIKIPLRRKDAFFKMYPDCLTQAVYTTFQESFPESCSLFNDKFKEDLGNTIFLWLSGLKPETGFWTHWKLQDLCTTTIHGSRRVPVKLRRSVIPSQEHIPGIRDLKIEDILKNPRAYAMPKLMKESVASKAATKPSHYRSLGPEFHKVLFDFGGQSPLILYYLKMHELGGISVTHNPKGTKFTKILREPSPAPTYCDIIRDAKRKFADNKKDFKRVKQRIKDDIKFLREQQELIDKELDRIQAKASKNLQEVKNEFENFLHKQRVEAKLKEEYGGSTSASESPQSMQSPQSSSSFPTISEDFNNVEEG
UniProt Q9D7G4: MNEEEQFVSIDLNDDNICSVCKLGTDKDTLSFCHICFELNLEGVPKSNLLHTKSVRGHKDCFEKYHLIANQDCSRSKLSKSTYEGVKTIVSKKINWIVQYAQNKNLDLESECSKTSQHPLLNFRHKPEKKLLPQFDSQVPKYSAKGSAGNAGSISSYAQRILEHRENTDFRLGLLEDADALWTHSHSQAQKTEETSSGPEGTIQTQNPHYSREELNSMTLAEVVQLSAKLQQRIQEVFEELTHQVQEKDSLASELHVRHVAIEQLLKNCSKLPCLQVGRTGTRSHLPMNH
UniProt Q9D650: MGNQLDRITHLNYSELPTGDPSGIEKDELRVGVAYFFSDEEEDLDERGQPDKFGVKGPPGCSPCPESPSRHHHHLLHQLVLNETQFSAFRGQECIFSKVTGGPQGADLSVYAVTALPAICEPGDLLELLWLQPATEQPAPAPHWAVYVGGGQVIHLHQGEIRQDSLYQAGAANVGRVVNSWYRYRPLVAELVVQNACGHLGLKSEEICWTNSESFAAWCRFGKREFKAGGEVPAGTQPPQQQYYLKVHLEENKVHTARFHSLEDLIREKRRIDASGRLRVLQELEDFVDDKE
UniProt Q9D7X8: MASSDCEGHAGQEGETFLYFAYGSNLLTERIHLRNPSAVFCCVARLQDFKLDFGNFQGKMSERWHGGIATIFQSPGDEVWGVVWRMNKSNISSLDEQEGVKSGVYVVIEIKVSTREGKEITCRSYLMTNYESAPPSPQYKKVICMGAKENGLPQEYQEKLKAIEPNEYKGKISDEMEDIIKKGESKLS
UniProt Q9D742: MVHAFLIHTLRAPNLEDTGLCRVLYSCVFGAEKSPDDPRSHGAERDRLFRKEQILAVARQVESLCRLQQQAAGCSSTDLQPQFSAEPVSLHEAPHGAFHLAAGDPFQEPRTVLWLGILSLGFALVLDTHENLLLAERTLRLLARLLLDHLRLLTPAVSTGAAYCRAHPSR
UniProt Q9D1I2: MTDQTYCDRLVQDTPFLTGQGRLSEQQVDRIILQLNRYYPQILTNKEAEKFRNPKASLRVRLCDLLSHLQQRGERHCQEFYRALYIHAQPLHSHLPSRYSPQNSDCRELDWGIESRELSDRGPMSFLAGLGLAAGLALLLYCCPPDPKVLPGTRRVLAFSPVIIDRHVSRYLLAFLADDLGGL
UniProt Q9D6Y7: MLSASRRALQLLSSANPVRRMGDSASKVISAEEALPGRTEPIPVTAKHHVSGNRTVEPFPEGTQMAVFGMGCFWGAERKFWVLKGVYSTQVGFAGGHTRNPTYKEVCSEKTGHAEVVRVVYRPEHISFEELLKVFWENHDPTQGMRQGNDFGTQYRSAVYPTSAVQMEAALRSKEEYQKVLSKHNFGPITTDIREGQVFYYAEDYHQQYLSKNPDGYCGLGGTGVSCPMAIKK
UniProt Q9D8Y7: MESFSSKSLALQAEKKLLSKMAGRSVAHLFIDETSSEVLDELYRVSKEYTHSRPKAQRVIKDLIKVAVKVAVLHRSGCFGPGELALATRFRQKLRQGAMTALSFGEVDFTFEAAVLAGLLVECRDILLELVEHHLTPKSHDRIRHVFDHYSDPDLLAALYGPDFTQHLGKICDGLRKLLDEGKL
UniProt Q9DA19, whole entry: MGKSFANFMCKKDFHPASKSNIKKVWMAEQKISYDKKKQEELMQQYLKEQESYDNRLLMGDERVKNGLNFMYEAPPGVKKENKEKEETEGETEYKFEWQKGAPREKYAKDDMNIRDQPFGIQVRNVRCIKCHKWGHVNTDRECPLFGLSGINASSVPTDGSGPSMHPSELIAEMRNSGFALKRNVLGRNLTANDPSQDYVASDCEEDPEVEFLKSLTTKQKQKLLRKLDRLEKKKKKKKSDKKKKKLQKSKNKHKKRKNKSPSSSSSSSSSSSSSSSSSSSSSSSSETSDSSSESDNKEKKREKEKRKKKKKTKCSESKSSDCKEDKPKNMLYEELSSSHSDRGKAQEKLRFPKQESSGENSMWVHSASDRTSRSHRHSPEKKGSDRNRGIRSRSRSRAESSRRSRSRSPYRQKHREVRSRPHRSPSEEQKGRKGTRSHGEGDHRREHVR
UniProt Q9D3W4, whole entry: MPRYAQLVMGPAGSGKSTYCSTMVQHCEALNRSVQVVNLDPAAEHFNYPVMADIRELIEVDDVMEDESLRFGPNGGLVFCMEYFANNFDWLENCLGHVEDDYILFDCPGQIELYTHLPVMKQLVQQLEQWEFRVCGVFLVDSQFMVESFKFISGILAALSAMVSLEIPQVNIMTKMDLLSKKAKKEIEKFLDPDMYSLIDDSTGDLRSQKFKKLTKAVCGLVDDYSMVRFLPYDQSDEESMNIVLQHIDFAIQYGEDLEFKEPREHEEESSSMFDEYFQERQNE

What follows are targets tested with CN[C@@H]1C[C@H]2O[C@@](C)([C@@H]1OC)n1c3ccccc3c3c4c(c5c6ccccc6n2c5c31)C(=O)NC4 [staurosporine] (assay: log2 fold change of tryptic peptide abundance, ligand vs vehicle (limited proteolysis) (log2 ratio); higher = more trypsin-susceptible (destabilized)). Conditions: ligand concentration: 20 uM; sample: mouse liver crude lysate; replicate design: treated separately.

Question: Which log2 fold change does the source give for “UniProt Q9D8E6 (peptide sequence: MFAPTKTWRR, peptide start residue: 101)” here?
Answer: 0.439

Question: Which log2 fold change does the source give for “UniProt Q9D518 (peptide sequence: DDIKFLR, peptide start residue: 446)” here?
Answer: 0.194

Question: For “UniProt Q9D7G4 (peptide sequence: LGLLEDADALWTHSHSQAQK, peptide start residue: 172)”, which log2 fold change is on record?
Answer: 0.316

Question: How did the log2 fold change turn out when “UniProt Q9D650 (peptide sequence: AGGEVPAGTQPPQQQYYLK, peptide start residue: 228)” was run?
Answer: 0.365

Question: “UniProt Q9D7X8 (peptide sequence: ISDEMEDIIK, peptide start residue: 172)” was tested. Which log2 fold change did it give?
Answer: 0.0926

Question: How did the log2 fold change turn out when “UniProt Q9D742 (peptide sequence: VHAFLIHTLR, peptide start residue: 2)” was run?
Answer: 0.511

Question: For “UniProt Q9D1I2 (peptide sequence: ALYIHAQPLHSHLPSR, peptide start residue: 83)”, which log2 fold change is on record?
Answer: 0.943

Question: With “UniProt Q9D6Y7 (peptide sequence: VVYRPEHISFEELLK, peptide start residue: 119)” as the target, how does the log2 fold change read?
Answer: -0.368

Question: How did the log2 fold change turn out when “UniProt Q9D8Y7 (peptide sequence: DILLELVEHHLTPK, peptide start residue: 125)” was run?
Answer: 0.142

Question: Which log2 fold change does the source give for “UniProt Q9DA19 (peptide sequence: EQESYDNR, peptide start residue: 49)” here?
Answer: -0.159

Question: Which log2 fold change does the source give for “UniProt Q9D3W4 (peptide sequence: STYCSTMVQHCEALNR, peptide start residue: 17)” here?
Answer: -0.0576
